The values below come from paper PMC12443970.

Results are given in words; binding and its absence hold for the method and conditions named. Binding seen in cells or lysates may run through a third protein. Some results given as binding are weak or reduced against the parent protein; the word gives no strength. For some assays here: Tags and fused reporters may be left off the sequences shown.

Assay [1] concerns the target T1, HA-PANK4 (UniProt Q9NVE7).
T1 sequence: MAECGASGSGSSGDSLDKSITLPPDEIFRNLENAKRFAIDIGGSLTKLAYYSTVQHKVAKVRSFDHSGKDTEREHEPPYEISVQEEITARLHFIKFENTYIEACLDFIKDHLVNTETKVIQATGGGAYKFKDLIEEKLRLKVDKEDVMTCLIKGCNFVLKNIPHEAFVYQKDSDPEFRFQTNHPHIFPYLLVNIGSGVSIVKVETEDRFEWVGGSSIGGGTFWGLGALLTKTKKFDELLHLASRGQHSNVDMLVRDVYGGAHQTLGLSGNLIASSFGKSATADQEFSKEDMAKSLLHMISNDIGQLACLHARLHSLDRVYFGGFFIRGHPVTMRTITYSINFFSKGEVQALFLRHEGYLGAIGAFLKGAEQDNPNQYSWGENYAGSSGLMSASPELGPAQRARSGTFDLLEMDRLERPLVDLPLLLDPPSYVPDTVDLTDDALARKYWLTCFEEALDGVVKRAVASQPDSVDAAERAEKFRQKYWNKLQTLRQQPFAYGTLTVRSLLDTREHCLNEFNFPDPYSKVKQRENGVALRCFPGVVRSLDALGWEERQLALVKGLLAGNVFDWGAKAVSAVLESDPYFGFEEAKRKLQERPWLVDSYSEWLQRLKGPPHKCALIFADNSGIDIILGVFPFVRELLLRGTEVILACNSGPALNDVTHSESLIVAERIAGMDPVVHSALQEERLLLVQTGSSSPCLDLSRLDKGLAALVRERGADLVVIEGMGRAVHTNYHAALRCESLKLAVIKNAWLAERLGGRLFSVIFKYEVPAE
Kind of assay: co-IP; HEK293T cells overexpressing PDK1 and PANK4; nondenaturing lysis buffer (20 mM Tris, 150 mM NaCl, 2 mM EDTA, 1% Triton X-100, 10% glycerol); anti-HA antibody at 4 °C overnight, Protein G Sepharose; immunoblotting.

For assay [2], the target named is T2, PANK4 (pantothenate kinase 4), endogenous in murine primary CD4+ T cells (mouse (endogenous in primary CD4+ T cells)) (UniProt Q80YV4).
T2 sequence: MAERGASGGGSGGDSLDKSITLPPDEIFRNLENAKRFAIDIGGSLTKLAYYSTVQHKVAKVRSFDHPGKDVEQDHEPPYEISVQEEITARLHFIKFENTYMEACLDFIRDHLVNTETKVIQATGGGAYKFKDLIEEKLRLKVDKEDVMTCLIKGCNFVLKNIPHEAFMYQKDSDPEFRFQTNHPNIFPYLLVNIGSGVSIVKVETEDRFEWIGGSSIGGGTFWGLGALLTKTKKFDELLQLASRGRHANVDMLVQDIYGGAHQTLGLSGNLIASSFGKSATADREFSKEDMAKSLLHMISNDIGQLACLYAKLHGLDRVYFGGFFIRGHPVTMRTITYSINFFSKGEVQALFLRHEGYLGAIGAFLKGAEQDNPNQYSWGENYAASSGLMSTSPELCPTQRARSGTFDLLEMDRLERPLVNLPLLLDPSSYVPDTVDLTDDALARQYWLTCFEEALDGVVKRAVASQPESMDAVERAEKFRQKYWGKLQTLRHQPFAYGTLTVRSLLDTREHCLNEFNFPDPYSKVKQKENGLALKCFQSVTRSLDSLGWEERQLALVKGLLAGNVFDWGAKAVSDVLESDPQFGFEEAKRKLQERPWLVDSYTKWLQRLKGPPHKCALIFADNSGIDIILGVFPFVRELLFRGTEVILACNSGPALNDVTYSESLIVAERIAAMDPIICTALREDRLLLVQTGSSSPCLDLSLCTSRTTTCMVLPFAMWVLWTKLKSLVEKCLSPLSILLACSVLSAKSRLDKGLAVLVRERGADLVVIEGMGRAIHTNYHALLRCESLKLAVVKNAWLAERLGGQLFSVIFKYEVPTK
Kind of assay: co-IP; murine primary CD4+ T cells with or without 30 min of TCR/CD28 stimulation; nondenaturing lysis buffer (20 mM Tris, 150 mM NaCl, 2 mM EDTA, 1% Triton X-100, 10% glycerol); anti-PANK4 antibody at 4 °C overnight, Protein G Sepharose; immunoblotting.

B1: Myc-PDK1 (protein, UniProt O15530 1-556)
chain: MARTTSQLYDAVPIQSSVVLCSCPSPSMVRTQTESSTPPGIPGGSRQGPAMDGTAAEPRPGAGSLQHAQPPPQPRKKRPEDFKFGKILGEGSFSTVVLARELATSREYAIKILEKRHIIKENKVPYVTRERDVMSRLDHPFFVKLYFTFQDDEKLYFGLSYAKNGELLKYIRKIGSFDETCTRFYTAEIVSALEYLHGKGIIHRDLKPENILLNEDMHIQITDFGTAKVLSPESKQARANSFVGTAQYVSPELLTEKSACKSSDLWALGCIIYQLVAGLPPFRAGNEYLIFQKIIKLEYDFPEKFFPKARDLVEKLLVLDATKRLGCEEMEGYGPLKAHPFFESVTWENLHQQTPPKLTAYLPAMSEDDEDCYGNYDNLLSQFGCMQVSSSSSSHSLSASDTGLPQRSGSNIEQYIHDLDSNSFELDLQFSEDEKRLLLEKQAGGNPWHQFVENNLILKMGPVDKRKGLFARRRQLLLTEGPHLYYVDPVNKVLKGEIPWSQELRPEAKNFKTFFVHTPNRTYYLMDPSGNAHKWCRKIQEVWRQRYQSHPDAAVQ
As for B1, in assay [1], the binding entry is listed as “binds”.

B2: PDK1 (3-phosphoinositide-dependent protein kinase 1), endogenous in murine primary CD4+ T cells (protein, UniProt Q9Z2A0 1-559)
chain: MARTTSQLYDAVPIQSSVVLCSCPSPSMVRSQTEPGSSPGIPSGVSRQGSTMDGTTAEARPSTNPLQQHPAQLPPQPRKKRPEDFKFGKILGEGSFSTVVLARELATSREYAIKILEKRHIIKENKVPYVTRERDVMSRLDHPFFVKLYFTFQDDEKLYFGLSYAKNGELLKYIRKIGSFDETCTRFYTAEIVSALEYLHGKGIIHRDLKPENILLNEDMHIQITDFGTAKVLSPESKQARANSFVGTAQYVSPELLTEKSACKSSDLWALGCIIYQLVAGLPPFRAGNEYLIFQKIIKLEYHFPEKFFPKARDLVEKLLVLDATKRLGCEEMEGYGPLKAHPFFETITWENLHQQTPPKLTAYLPAMSEDDEDCYGNYDNLLSQFGFMQVSSSSSSHSLSTVETSLPQRSGSNIEQYIHDLDTNSFELDLQFSEDEKRLLLEKQAGGNPWHQFVENNLILKMGPVDKRKGLFARRRQLLLTEGPHLYYVDPVNKVLKGEIPWSQELRPEAKNFKTFFVHTPNRTYYLMDPSGNAHKWCRKIQEVWRQQYQSNPDAAVQ
Take B2: the binding entry in assay [2] is “binds”.
